Measured values as given in PubChem BioAssay AID1259415 (National Center for Advancing Translational Sciences (NCATS), 2018).
Out of some 410,000 compounds screened, about 18,000 (4.4%) were called active. The inconclusive results got no clear call from the source; some entries with a clear call stand among them for comparison. Cut-off read from the data, not from the text of the source: active = activity change below about -60%; inconclusive = no clear call, values can overlap the other calls; inactive = above about -39%.

assay: qHTS Assay for inhibitors of the human cytomegalovirus (HCMV); conditions: HFF cells, HCMV-luciferase reporter, 72 h; at 57.5 µM; active compounds read low
Method in brief: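 Screen run at 2 compound doses on HFFs infected with reporter HCMV, MOI 1 PFU/cell. Luciferase activity from cell lysates at 72 h post infection gave inhibition relative to buffer-only and Salinomycin wells.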
% is set by controls: 0 for no effect and ±100 for the full control effect.

SMILES | activity change, negative = inhibition
COc1cc(F)ccc1-c1cc(C(=O)Nc2ccc(NC(C)=O)cc2)[nH]n1 | inconclusive: -44.9%
Nc1nc(-c2ccc(-c3ccccc3)cc2)cs1 | inactive: -1.28%
CCOC(=O)[C@H]1[C@H]2COc3ccc(Cl)cc3[C@@H]2N2C(=O)c3ccccc3NC(=O)[C@@]12C | active: -69.6%
COc1ccc(C2SCCN2C(=S)Nc2cccc(Cl)c2)cc1 (configuration not stated) | inconclusive: -48.8%
C[C@@H]1C[C@@H]2O[C@H]2/C=C\C=C\C(=O)Cc2c(Cl)c(O)cc(O)c2C(=O)O1 | active: -76.2%
CCn1ccnc1[C@@H]1C[C@H]2CN(Cc3ccccc3OC)C(=O)[C@]23CCCN13 | inconclusive: -41.8%
Cc1ccc(SCCNC(=S)Nc2cc(C)cc(C)c2)cc1 | inactive: -29.9%
Cc1ccc(C)n1C1C(=O)N(Cc2ccc(C(F)(F)F)cc2)c2ccc(F)cc21 (configuration not stated) | inactive: -0.383%
O=C(Cn1c(=O)nc(-c2ccccc2)c2cc(Cl)ccc21)N1CCN(c2ccc(F)cc2)CC1 | inconclusive: -58%
Cc1ccc(NC(=O)c2ccc(NCc3ccc(F)cc3)nc2)cc1 | active: -105%
NC(=O)CSc1nc2ccccc2n1Cc1ccccc1 | inconclusive: -59.1%
CCc1ccc(NC(=O)c2cnc(SC)nc2C)cc1 | inactive: 65.5%
O=S(=O)(c1cnc(Cl)c(Cl)c1)N1CCCc2ccccc21 | inconclusive: -54%
COc1ccc(CC(=O)Nc2c(C(=O)N3CCN(c4ccccc4OC)CC3)oc3ccccc23)cc1OC | inconclusive: -47.4%
Cc1cccc(-c2nnc(C3CCN(S(=O)(=O)c4cccc(Cl)c4)CC3)o2)c1 | active: -94.2%
O=C(Nc1ccc2oc(-c3ccncc3)nc2c1)c1cccs1 | inactive: -11.1%
Cc1ccc(-c2[nH]c(-c3ccc(C(=O)O)cc3)nc2-c2ccccc2)cc1 | inconclusive: -42.2%
Cn1nc(C(=O)Nc2ccc(F)c(Cl)c2)c2c1-c1ccccc1S(=O)(=O)C2 | inactive: -18.9%
CSCc1ccc(C(=O)N2CCC(N3CCC(C(=O)NC(C)C)CC3)CC2)o1 | active: -64.3%
O=C(NCc1ccccc1)C(c1cccc2ccccc12)n1c(=O)c(-c2ccccc2)nc2ccccc21 (configuration not stated) | inconclusive: -47.9%
CC(C)(C)OC(=O)NCc1ccc(NC(=O)c2nc[nH]c2C(=O)N[C@@H](Cc2ccccc2)C(=O)OC(C)(C)C)cc1 | inconclusive: -45.6%

3 compounds out of the list, ordered by formula weight, largest number first:
SMILES | activity change, negative = inhibition
CCn1ccnc1[C@@H]1C[C@H]2CN(Cc3ccccc3OC)C(=O)[C@]23CCCN13 | inconclusive: -41.8%
C[C@@H]1C[C@@H]2O[C@H]2/C=C\C=C\C(=O)Cc2c(Cl)c(O)cc(O)c2C(=O)O1 | active: -76.2%
Cc1ccc(-c2[nH]c(-c3ccc(C(=O)O)cc3)nc2-c2ccccc2)cc1 | inconclusive: -42.2%

The list goes on.

SMILES | activity change, negative = inhibition
CCN(CC)c1ccc(C(=C2C=CC(=[N+](CC)CC)C=C2)c2ccc(S(=O)(=O)O)cc2S(=O)(=O)[O-])cc1 | inconclusive: -59.3%
COc1ccccc1Nc1c2ccccc2nc2ccccc12 | active: -98.7%
Cc1ccc(C)c(S(=O)(=O)N2CCCOC2CNC(=O)C(=O)NCCc2ccccc2)c1 (configuration not stated) | inconclusive: -52.2%
Cc1ccc(CN(CC(O)COc2cccc3[nH]cc(C)c23)C(C)(C)C)cc1 (configuration not stated) | inconclusive: -48.6%
CCOC(=O)C1=C(c2ccccc2)NC(SCC)=C(C#N)C1c1cccnc1 (configuration not stated) | inconclusive: -43%
Cc1nc(C)c(-c2ccc(SCC(=O)Nc3ccc(F)cc3F)nn2)s1 | inconclusive: -46.7%
CC(C)(C)OC(=O)N1CCCN(C(=O)Nc2ccc(OC(F)(F)F)cc2)CC1 | inconclusive: -51.2%
Cc1cc(N2CCCCCC2)n2nc(C)c(-c3ccccc3)c2n1 | inactive: 30.8%
FC(F)(F)c1nc(N2CCCC2)ncc1-c1nnnn1-c1ccc(Cl)cc1 | active: -65.1%
COc1ccccc1NC(=O)CSc1nc2ccccc2c(=O)n1C | inconclusive: -56.3%
CCCCCCOc1ccc(CN2CCN(CC)CC2)cc1 | active: -75.3%
CCCc1cc(N2CCCC(C(=O)Nc3ccc(OC)cc3OC)C2)n2ncnc2n1 (configuration not stated) | inconclusive: -55.5%
N#Cc1ccccc1Cn1cc(C(=O)c2cccs2)c2ccccc21 | active: -80.7%
COC(=O)c1ccc(CN2CCN(Cc3ccc(C(=O)OC)o3)CC2)o1 | inactive: -12.3%
CCC(Sc1nc2ccccc2c(=O)n1CCc1ccc(OC)c(OC)c1)C(=O)N(CC)CC (configuration not stated) | inactive: -11.1%
CCc1nnc(NC(=O)c2ccc(S(=O)(=O)N3CCN(Cc4ccccc4)CC3)cc2)s1 | inconclusive: -42.1%
Cc1cc(C)cc(NS(=O)(=O)c2ccc3c(c2)c(=O)n(C)c(=O)n3C)c1 | inconclusive: -43.6%
O=C(Nc1ncc2c(n1)-c1ccccc1CC2)c1cccc(Cl)c1 | inconclusive: -50.7%
Cc1cc(C)cc(NS(=O)(=O)c2cc3c(cc2C)NC(=O)CO3)c1 | inactive: -26.3%
CSc1cccc(NC(=O)CCn2c(=O)c3cccn3c3cccnc32)c1 | inconclusive: -55.6%
Cc1cn2c(=O)cc(COC(=O)c3ccc(NC(=O)COc4ccccc4F)cc3)nc2s1 | inactive: 23.6%
